This assay addresses 1-382 N-GPR56-Fc fusion protein (human) (UniProt Q9Y653). Description: SPR; as a2 but with 3 mM GTP instead of Ca2+: BIAcore T200, protein A chip with captured 1-382 N-GPR56-Fc, C277S-TG2 as analyte, 25 °C, HBS; both purified. Background: SPR reads the build-up and loss of mass on a sensor chip optically.

Sequences of proteins named here, by UniProt entry; tags and fusion partners are left off. Residues count along the entry.
UniProt Q9Y653, residues 26-382: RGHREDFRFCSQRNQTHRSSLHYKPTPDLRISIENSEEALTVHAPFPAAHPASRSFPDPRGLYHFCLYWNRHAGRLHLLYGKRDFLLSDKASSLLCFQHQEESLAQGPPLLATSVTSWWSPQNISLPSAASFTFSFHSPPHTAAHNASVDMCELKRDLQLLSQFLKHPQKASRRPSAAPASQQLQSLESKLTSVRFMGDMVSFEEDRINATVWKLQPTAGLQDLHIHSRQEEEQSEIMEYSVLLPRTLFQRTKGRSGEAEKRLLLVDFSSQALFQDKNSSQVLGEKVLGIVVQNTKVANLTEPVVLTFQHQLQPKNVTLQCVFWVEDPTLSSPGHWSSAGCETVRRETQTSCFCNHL

These are yes or no findings as the source states them, for the method shown.

B1: C277S-TG2 (catalytically deficient TG2 C277S mutant) (enzyme, UniProt P21980 1-687)
chain: MAEELVLERCDLELETNGRDHHTADLCREKLVVRRGQPFWLTLHFEGRNYEASVDSLTFSVVTGPAPSQEAGTKARFPLRDAVEEGDWTATVVDQQDCTLSLQLTTPANAPIGLYRLSLEASTGYQGSSFVLGHFILLFNAWCPADAVYLDSEEERQEYVLTQQGFIYQGSAKFIKNIPWNFGQFEDGILDICLILLDVNPKFLKNAGRDCSRRSSPVYVGRVVSGMVNCNDDQGVLLGRWDNNYGDGVSPMSWIGSVDILRRWKNHGCQRVKYGQSWVFAAVACTVLRCLGIPTRVVTNYNSAHDQNSNLLIEYFRNEFGEIQGDKSEMIWNFHCWVESWMTRPDLQPGYEGWQALDPTPQEKSEGTYCCGPVPVRAIKEGDLSTKYDAPFVFAEVNADVVDWIQQDDGSVHKSINRSLIVGLKISTKSVGRDEREDITHTYKYPEGSSEEREAFTRANHLNKLAEKEETGMAMRIRVGQSMNMGSDFDVFAHITNNTAEEYVCRLLLCARTVSYNGILGPECGTKYLLNLNLEPFSEKSVPLCILYEKYRDCLTESNLIKVRALLVEPVINSYLLAERDLYLENPEIKIRILGEPKQKRKLVAEVSLQNPLPVALEGCTFTVEGAGLTEEQKTVEIPDPVEAGEEVKVRMDLLPLHMGLHKLVVNFESDKLKAVKGFRNVIIGPA
Turning to B1, the binding result is given as “no binding (condition: with 3 mM GTP)”.
